US20210207126A1
Results are given in words; binding and its absence hold for the method and conditions named. Some results given as binding are weak or reduced against the parent protein; the word gives no strength.

Chains of the proteins cited; added tags and fusions are not shown. Residues count along the entry.
UniProt Q07011, residues 24-186: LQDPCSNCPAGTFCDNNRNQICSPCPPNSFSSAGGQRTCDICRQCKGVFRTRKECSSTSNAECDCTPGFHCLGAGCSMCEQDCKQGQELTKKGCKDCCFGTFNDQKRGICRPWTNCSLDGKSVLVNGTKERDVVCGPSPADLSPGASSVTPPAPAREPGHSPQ

Molecular target: CD137 antigen used to stain yeast (human) (UniProt Q07011)
Test: flow cytometry, yeast-displayed Fab

B1: Fab of TY21242 displayed on yeast (Fab, V domains shown)
VH: EVQLVESGGGLVQPGGSLRLSCAASGFSLSTGGVGVGWIRQAPGKGLEWLALIDWADDKYYSPSLKSRLTISRDNSKNTLYLQLNSLRAEDTAVYYCARGGSDTVIGDWFAYWGQGTLVTVSS
VL: DIQLTQSPSSLSASVGDRVTITCRASQSIGSYLAWYQQKPGKAPKLLIYDASNLETGVPSRFSGSGSGTDFTLTISSLQPEDFATYYCQQGYYLWTFGQGTKVEIK
binding: binds
